Laboratory results as given in publication doi:10.1101/2020.02.11.944470.
No constants are given. Whether binding was seen depends on the method and setting. In cells and extracts the contact can be indirect. Some binding calls cover weakened binding; strength is not graded here.

Sequences of proteins named here, by UniProt entry; tags and fusion partners are left off.
UniProt Q9CWL2: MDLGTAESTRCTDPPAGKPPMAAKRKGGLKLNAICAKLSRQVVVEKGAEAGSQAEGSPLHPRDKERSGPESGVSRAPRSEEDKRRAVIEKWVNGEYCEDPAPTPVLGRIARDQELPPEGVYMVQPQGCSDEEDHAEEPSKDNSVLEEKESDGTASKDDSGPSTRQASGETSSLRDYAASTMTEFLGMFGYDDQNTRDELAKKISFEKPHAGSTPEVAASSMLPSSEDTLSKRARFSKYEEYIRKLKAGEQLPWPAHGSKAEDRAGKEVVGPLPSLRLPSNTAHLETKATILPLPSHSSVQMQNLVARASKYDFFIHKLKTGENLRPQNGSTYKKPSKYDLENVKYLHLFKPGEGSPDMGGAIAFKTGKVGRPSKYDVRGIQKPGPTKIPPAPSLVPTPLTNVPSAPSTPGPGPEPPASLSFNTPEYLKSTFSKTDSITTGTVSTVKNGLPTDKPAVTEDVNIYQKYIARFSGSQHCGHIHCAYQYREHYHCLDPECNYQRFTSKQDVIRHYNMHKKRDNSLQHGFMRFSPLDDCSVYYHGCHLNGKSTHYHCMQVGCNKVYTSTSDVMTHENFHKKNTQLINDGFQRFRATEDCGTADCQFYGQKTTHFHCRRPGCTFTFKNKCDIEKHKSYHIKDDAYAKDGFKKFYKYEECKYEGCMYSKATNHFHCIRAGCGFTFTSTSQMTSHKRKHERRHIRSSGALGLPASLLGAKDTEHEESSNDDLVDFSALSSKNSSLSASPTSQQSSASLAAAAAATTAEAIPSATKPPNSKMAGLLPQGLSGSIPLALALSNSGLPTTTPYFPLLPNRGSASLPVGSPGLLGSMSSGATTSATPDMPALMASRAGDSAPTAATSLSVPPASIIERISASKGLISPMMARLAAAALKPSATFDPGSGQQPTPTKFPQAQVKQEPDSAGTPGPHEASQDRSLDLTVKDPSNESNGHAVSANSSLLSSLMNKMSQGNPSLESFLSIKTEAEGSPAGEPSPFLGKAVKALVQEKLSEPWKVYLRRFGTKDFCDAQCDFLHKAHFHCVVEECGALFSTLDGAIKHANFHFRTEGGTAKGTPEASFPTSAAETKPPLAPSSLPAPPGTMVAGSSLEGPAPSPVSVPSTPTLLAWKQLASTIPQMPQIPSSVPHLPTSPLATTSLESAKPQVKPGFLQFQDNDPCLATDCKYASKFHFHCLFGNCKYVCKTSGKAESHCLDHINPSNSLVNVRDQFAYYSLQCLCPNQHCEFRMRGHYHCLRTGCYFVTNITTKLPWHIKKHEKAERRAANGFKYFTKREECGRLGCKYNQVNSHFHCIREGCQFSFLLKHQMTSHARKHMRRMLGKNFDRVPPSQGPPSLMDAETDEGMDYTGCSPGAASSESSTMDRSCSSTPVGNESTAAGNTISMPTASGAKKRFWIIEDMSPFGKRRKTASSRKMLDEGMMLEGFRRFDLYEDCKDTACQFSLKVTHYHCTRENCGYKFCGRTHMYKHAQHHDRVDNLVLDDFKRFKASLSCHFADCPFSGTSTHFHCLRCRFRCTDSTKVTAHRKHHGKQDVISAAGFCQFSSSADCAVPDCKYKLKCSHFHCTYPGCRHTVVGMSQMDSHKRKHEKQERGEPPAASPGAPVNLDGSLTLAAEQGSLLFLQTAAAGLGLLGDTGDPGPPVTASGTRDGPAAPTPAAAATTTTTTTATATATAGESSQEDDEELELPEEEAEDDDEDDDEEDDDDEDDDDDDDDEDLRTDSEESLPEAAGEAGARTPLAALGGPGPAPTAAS
UniProt Q92769: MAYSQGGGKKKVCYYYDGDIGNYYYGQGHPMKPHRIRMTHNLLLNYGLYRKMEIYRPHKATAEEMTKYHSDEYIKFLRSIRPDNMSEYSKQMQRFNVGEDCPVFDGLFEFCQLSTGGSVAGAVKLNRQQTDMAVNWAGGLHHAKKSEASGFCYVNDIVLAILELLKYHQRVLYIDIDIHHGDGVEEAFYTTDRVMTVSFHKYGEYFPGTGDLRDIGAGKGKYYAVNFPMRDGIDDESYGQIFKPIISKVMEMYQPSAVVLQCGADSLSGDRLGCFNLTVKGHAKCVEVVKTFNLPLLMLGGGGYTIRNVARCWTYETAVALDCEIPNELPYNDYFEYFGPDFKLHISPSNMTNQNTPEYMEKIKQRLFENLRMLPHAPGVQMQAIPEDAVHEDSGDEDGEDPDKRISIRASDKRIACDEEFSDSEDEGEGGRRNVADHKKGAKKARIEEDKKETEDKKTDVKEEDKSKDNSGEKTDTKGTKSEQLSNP
UniProt Q6PDQ2: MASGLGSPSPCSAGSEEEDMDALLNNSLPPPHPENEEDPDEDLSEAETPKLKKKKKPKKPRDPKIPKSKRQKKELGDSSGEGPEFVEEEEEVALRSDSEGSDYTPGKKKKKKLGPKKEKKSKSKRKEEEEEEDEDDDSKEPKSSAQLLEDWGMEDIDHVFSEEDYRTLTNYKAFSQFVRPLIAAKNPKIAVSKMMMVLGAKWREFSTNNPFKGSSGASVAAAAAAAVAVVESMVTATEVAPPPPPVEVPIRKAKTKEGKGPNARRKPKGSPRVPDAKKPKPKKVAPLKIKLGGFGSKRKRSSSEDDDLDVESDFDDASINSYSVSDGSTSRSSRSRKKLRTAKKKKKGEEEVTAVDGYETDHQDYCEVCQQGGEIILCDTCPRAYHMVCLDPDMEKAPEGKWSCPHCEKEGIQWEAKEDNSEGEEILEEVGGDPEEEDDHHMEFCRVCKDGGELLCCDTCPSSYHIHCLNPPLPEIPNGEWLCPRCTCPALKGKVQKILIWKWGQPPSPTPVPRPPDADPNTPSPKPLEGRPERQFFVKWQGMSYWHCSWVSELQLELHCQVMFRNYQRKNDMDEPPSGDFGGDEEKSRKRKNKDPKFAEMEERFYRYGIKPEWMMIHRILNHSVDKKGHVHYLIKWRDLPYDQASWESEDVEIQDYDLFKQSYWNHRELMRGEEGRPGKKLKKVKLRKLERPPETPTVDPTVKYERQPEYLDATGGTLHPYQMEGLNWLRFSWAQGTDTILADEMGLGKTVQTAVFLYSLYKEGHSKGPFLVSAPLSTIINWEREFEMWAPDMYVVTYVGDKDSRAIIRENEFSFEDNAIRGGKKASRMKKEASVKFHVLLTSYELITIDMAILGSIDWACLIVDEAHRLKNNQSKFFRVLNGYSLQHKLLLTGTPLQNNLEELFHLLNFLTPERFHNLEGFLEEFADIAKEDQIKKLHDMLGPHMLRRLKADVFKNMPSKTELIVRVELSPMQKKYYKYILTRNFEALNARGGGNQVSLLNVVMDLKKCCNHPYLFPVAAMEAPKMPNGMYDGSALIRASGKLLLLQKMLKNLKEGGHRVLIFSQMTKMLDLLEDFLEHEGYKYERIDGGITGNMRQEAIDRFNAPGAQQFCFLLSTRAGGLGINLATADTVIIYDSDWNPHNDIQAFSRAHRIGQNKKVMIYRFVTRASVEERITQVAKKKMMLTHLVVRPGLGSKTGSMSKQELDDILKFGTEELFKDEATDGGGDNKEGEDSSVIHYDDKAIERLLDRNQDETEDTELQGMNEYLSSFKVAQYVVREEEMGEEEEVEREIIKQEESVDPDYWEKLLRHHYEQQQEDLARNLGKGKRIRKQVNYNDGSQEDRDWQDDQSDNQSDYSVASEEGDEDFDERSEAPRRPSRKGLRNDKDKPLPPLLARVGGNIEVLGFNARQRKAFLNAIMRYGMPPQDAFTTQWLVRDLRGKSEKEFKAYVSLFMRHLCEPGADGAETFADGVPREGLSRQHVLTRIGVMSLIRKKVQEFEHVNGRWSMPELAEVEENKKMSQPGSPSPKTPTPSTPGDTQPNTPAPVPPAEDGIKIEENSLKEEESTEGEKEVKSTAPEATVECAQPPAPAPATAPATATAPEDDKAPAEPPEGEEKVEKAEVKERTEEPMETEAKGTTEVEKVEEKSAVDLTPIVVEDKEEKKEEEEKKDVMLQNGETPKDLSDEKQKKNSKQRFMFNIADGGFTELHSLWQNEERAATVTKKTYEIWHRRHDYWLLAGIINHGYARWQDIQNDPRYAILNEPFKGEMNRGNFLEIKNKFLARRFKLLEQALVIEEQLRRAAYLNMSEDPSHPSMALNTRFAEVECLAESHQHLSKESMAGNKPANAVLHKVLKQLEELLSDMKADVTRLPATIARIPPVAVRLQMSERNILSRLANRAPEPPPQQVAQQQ
UniProt Q99496: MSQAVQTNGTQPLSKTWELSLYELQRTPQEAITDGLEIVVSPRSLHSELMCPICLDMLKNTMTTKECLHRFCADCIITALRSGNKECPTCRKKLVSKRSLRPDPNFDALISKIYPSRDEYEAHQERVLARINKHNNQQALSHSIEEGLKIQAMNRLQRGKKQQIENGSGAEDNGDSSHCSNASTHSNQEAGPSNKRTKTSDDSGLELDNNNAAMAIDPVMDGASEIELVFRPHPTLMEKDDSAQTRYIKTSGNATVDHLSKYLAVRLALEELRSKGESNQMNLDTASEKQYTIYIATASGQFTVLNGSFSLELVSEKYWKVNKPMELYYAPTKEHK
UniProt P70288: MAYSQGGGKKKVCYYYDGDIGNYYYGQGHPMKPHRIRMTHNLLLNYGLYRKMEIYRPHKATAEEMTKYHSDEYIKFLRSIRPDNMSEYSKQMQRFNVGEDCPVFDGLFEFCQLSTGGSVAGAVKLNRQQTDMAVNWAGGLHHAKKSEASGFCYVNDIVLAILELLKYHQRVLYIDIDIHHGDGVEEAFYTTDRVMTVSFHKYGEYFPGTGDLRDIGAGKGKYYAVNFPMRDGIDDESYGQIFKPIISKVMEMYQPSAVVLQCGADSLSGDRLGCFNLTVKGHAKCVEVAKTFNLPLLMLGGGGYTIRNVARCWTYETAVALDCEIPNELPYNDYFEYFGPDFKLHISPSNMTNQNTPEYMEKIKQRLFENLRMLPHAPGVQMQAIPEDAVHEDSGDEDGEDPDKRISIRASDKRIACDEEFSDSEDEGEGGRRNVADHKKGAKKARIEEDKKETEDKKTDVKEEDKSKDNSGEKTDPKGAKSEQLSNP

Columns and labels:
[1] = biological target: Casz1v1-EGFP fusion protein (mouse) (UniProt Q9CWL2); assay: co-IP
[2] = biological target: Casz1 (endogenous, developing retina) (mouse (endogenous in P4 retinas)) (UniProt Q9CWL2); assay: co-IP

With “Hdac2 (293Trex) (from UniProt Q92769 1-488) (enzyme)” as the substance, how does the binding [1] read?
Its binding is “binds”.

Chd4 (from UniProt Q6PDQ2 1-1915) was tested. Which binding [2] did it give?
The binding was “binds”.

“Rnf2 (293Trex) (from UniProt Q99496 1-336)” was tested. Which binding [1] did it give?
The binding was “no binding”.

For “Hdac2 (mouse) (from UniProt P70288 1-488) (enzyme)”, which binding [2] is on record?
The binding was “binds”.
